Laboratory results taken from PubChem BioAssay (NCATS).
The other results are listed elsewhere or left out. Shown are side measurements of this screen, not its main read-out; they come without a call. Most of these compounds were active or inconclusive in the main read-out, so they are no random draw. The note in brackets gives the kind of curve behind each potency; many fits are weak.

Assay: A High-Content qHTS Against Drug Library for the Identification of Small Molecules that Inhibit DYT1 Early Onset Primary Dystonia-Associated Cell Pathology (AID 1645839)
Settings: HEK293 Flp-In EGFP-delE TorsinA, punctate imaging, 48 h; measured here: cell count cytotoxicity
Description: Nicole Calakos M.D., Ph.D.
Duke University School of Medicine, Durham, NC
In DYT1 dystonia due to delGAG in the TOR1A gene, there is a robust and widely replicated finding of TorsinA protein mislocalization caused when the mutant protein is in excess of the wildtype protein (1-7). Stable HEK293 cell lines were created that replicate this phenomenon. Inducible expression of an EGFP-hu delE TorsinA encoding cDNA causes pronounced punctate cellular distribution. […] This phenotypic difference in EGFP-huTorsinA fusion protein distribution serves as an indicator of cell pathology. […] RNAi screen results with the assay were validated in DYT1 patient cell phenotypes, intersected with a known dystonia gene, and led to discovery of new human genetic dystonia associations.
The bioassay described herein is a high-content image screen with two readouts. The "%pathology" readout is the primary qHTS data channel, while the "cellcount" is the counterscreen qHTS channel. Desired active compounds are those that show inhibition in %pathology channel but no activity or minimal toxicity in cellcount readout.
1. Kustedjo, K., Bracey, M.H., and Cravatt, B.F. (2000). […] J. Biol. Chem. 275, 27933 - 27939.
2. Bragg, D.C., Kaufman, C.A., Kock, N., and Breakefield, X.O. (2004). Inhibition of N-linked glycosylation prevents inclusion formation by the dystonia-related mutant form of torsinA. Mol. Cell. Neurosci. 27, 417 - 426.
3. Gonzalez-Alegre, P., and Paulson, H.L. (2004). Aberrant Cellular Behavior of Mutant TorsinA Implicates Nuclear Envelope Dysfunction in DYT1 Dystonia. J. Neurosci. 24, 2593 - 2601.
4. Goodchild, R.E., and Dauer, W.T. (2004). Mislocalization to the nuclear envelope: an effect of the dystonia-causing torsinA mutation. Proc. Natl. Acad. Sci. U. S. A. 101, 847 - 852.
5. Kock, N., Allchorne, A.J., Sena-Esteves, M., Woolf, C.J., and Breakefield, X.O. (2006). RNAi blocks DYT1 mutant torsinA inclusions in neurons. Neurosci. Lett. 395, 201 - 205.
6. Hewett, J.W., Nery, F.C., Niland, B., Ge, P., Tan, P., Hadwiger, P., Tannous, B.A., Sah, D.W.Y., and Breakefield, X.O. (2008). siRNA knock-down of mutant torsinA restores processing through secretory pathway in DYT1 dystonia cells. Hum. Mol. Genet. 17, 1436 - 1445.
7. Calakos, N., Patel, V.D., Gottron, M., Wang, G., Tran-Viet, K.N., Brewington, D., Beyer, J.L., Steffens, D.C., Krishnan, R.R., and Zuchner, S. (2010). Functional evidence implicating a novel TOR1A mutation in idiopathic, late-onset focal dystonia. J. Med. Genet. 47, 646 - 650.
8. Rittiner* JE, Caffall* ZF, Hernandez-Martinez R, Sanderson SM, Pearson JL, Tsukayama KK, Liu AY, Xiao C, Tracy S, Shipman MK, Hickey P, Johnson J, Scott B, Stacy M, Saunders-Pullman R, Bressman S, Simonyan K, Sharma N, Ozelius LJ, Cirulli ET, Calakos N. Functional Genomic Analyses of Mendelian and Sporadic Disease Identify Impaired eIF2alpha Signaling as a Generalizable Mechanism for Dystonia. Neuron. 2016 Dec 21;92(6):1238-1251. doi: 10.1016/j.neuron.2016.11.012. Epub 2016 Dec 8. PMID: 27939583; PMCID: PMC5320521.
High-content, High-throughput Drug Screening Assay
The TorsinA mislocalization assay was modified from the previously published assay to accommodate compound testing in 1536 well format.1 Briefly, Flp-In T-REx 293 cells from Invitrogen in which a single copy of a cDNA is recombined into a specific genomic locus was used to create tetracycline-inducible expression of cDNA encoding either EGFP-hTOR1A (WT) or EGFP-delE hTOR1A (DYT1). WT and DYT1 cells were diluted to a concentration of 2 x 10^5 cells/mL in reduced serum media (DMEM High Glucose containing 1% tetracycline-tested FBS, 2 mM L-Glutamine, and 1% Penicillin/Streptomycin). 4 µl of WT cells and 4 µl of DTY1 cells were added to column 1 and columns 2-48, respectively, of a poly-D-lysine-coated, low base, black, clear bottom 1536 well plate (Corning, Corning, NY) using the BioRAPTR FRD Microfluidic Workstation (Beckman Coulter, Indianapolis, IN). The final cell number was 800 cells/well. […]

| Structure (SMILES) | AC50 |
| --- | --- |
| CCCCCCCCCCOCC(O)CN (stereo not given) | 3.98 µM [falling, partial curve] |
| CC[C@]12CCCN3CCc4c(n(c5ccccc45)C(=O)C1)[C@@H]32 | 1 µM [falling, full curve, poor fit] |
| C=CCSCC1Nc2cc(Cl)c(S(N)(=O)=O)cc2S(=O)(=O)N1 (stereo not given) | 11.2 µM [rising, single point] |
| C=C[C@H]1CN2CC[C@H]1C[C@H]2[C@H](O)c1ccnc2ccc(OC)cc12 | 15.8 µM [falling, single point] |
| CCOC(=O)c1cc(=O)c2c(OCC(COc3cccc4oc(C(=O)OCC)cc(=O)c34)OC(=O)[C@@H](N)CCCCN)cccc2o1 | 17.8 µM [rising, single point] |
| CCCCCCCCCCCCCCCCOP(=O)([O-])OCC[N+](C)(C)C | 8.91 µM [falling, partial curve] |
| CC(C(=O)O)c1cccc(Oc2ccccc2)c1 (stereo not given) | 12.6 µM [falling, single point] |
| Oc1cccc(-c2c3nc(c(-c4cccc(O)c4)c4ccc([nH]4)c(-c4cccc(O)c4)c4nc(c(-c5cccc(O)c5)c5ccc2[nH]5)CC4)C=C3)c1 | 2.51 µM [falling, full curve, poor fit] |
| CC(=O)Nc1ccc(O)cc1 | 2.24 µM [rising, full curve] |
| Nc1ccc(S(=O)(=O)Nc2cnc3ccccc3n2)cc1 | 2.82 µM [falling, partial curve, poor fit] |
| CC(CN1c2ccccc2Sc2ccccc21)N(C)C (stereo not given) | 17.8 µM [falling, partial curve, poor fit] |
| CNCC[C@@H](Oc1ccccc1C)c1ccccc1 | 11.2 µM [falling, partial curve, poor fit] |
| Cc1ccc(-n2[nH]c(C)c(N=Nc3cccc(-c4cccc(C(=O)O)c4)c3O)c2=O)cc1C | 1.58 µM [falling, partial curve, poor fit] |
| C[C@@H](NCCCc1cccc(C(F)(F)F)c1)c1cccc2ccccc12 | 7.08 µM [falling, full curve, poor fit] |
| CCN(CC)CCOc1ccc2c(c1)C(=O)c1cc(OCCN(CC)CC)ccc1-2 | 1.41 µM [falling, partial curve, poor fit] |
| COC(=O)C1=C(C)NC(C)=C(C(=O)OCCc2ccc(N3CCN(C(c4ccccc4)c4ccccc4)CC3)cc2)C1c1cccc([N+](=O)[O-])c1 (stereo not given) | 35.5 µM [falling, single point] |
| O=C(Nc1ccccc1)OCC(CN1CCCCC1)OC(=O)Nc1ccccc1 (stereo not given) | 35.5 µM [falling, single point] |
| CCCCCCCCCCCCCCCCC(C(=O)O)C(O)(CC(=O)O)C(=O)O (stereo not given) | 3.16 µM [falling, single point] |
| COc1cc2c(N3CCN(C(=O)Nc4ccc(OC(C)C)cc4)CC3)ncnc2cc1OCCCN1CCCCC1 | 11.2 µM [falling, partial curve, poor fit] |

| Structure (SMILES) | AC50 |
| --- | --- |
| COc1ccc(/C=C/C(=O)c2ccc(OC)cc2OC)cc1 | 35.5 µM [falling, single point] |
| CC(=O)OC[C@H]1O[C@@](COC(C)=O)(O[C@H]2O[C@H](COC(C)=O)[C@@H](OC(C)=O)[C@H](OC(C)=O)[C@H]2OC(C)=O)[C@@H](OC(C)=O)[C@@H]1OC(C)=O | 10 µM [falling, partial curve, poor fit] |
| COc1cc(C(C)=O)ccc1OCCCN1CCC(c2noc3cc(F)ccc23)CC1 | 39.8 µM [falling, partial curve, poor fit] |
| C#C[C@]1(O)CC[C@H]2[C@@H]3CCc4cc(OC)ccc4[C@H]3CC[C@@]21C | 10 µM [falling, partial curve, poor fit] |
| CCOC(=O)[C@H](CCc1ccccc1)N[C@H]1CCc2ccccc2N(CC(=O)O)C1=O | 2.24 µM [falling, full curve, poor fit] |
| CC(C)[C@@H]1CC[C@@H](C)CC1=O | 35.5 µM [rising, partial curve, poor fit] |
| CCc1cccc(N(C)C(N)=Nc2cccc3ccccc23)c1 | 25.1 µM [falling, single point] |
| O=C(O)Cn1c(C(=O)Nc2nc(-c3ccccc3Cl)cs2)cc2ccccc21 | 11.2 µM [falling, single point] |
| CN1CCN(CCCN2c3ccccc3Sc3ccc(Cl)cc32)CC1 | 3.16 µM [falling, partial curve, poor fit] |
| COCC(=O)O[C@]1(CCN(C)CCCc2nc3ccccc3[nH]2)CCc2cc(F)ccc2[C@@H]1C(C)C | 6.31 µM [falling, partial curve, poor fit] |
| COc1cc2c(cc1OC)-c1cc(=Nc3c(C)cc(C)cc3C)n(C)c(=O)n1CC2 | 22.4 µM [falling, single point] |
| CC(=O)Oc1ccc2c(c1)CC[C@@H]1[C@@H]2CC[C@]2(C)[C@@H](O)CC[C@@H]12 | 10 µM [falling, partial curve, poor fit] |
| COc1ccc(C(Cl)=C(c2ccc(OC)cc2)c2ccc(OC)cc2)cc1 | 6.31 µM [rising, partial curve] |
| C#CCN(C)Cc1ccccc1 | 35.5 µM [rising, single point] |
| O[C@@H](COc1cccc2ncccc12)CN1CCN(C2c3ccccc3[C@@H]3[C@H](c4ccccc42)C3(F)F)CC1 (stereo not given in full) | 6.31 µM [falling, full curve, poor fit] |
| CC(C)=CCOc1ccc(/C=C/C(=O)c2ccc(OCC=C(C)C)cc2OCC(=O)O)cc1 | 35.5 µM [falling, single point] |
| NS(=O)(=O)c1cc2c(cc1Cl)NC(CSCc1ccccc1)=NS2(=O)=O | 35.5 µM [rising, single point] |
| CN[C@@H]1[C@H](O)[C@H](NC)[C@H]2O[C@@]3(O)C(=O)C[C@@H](C)O[C@H]3O[C@@H]2[C@H]1O | 20 µM [rising, partial curve, poor fit] |
| Nc1ccc([N+](=O)[O-])cc1O | 7.94 µM [falling, partial curve] |
| C#C[C@]1(O)CC[C@H]2[C@@H]3CCC4=CC(=O)CC[C@@H]4[C@H]3CC[C@@]21C | 0.501 µM [falling, full curve, poor fit] |

Laid out differently: three of the compounds above.
Structure (SMILES)	AC50
C#C[C@]1(O)CC[C@H]2[C@@H]3CCc4cc(OC)ccc4[C@H]3CC[C@@]21C	10 µM [falling, partial curve, poor fit]
CCOC(=O)[C@H](CCc1ccccc1)N[C@H]1CCc2ccccc2N(CC(=O)O)C1=O	2.24 µM [falling, full curve, poor fit]
CC(C)[C@@H]1CC[C@@H](C)CC1=O	35.5 µM [rising, partial curve, poor fit]
